The target of test [1] is protein inhibitor of neuronal nitric oxide synthase (PIN), produced by thrombin digestion of GST-PIN (rat) (UniProt P63170). In words: SPR, peptide immobilized on CM5, PIN injected.
Test [2] has the same target. In words: SPR.
The target in test [3] is GST-PIN (PIN with a glutathione S-transferase tag in the N-terminal position) (rat) (UniProt P63170). Briefly: competition ELISA.
For test [4], the target named is protein inhibitor of neuronal nitric oxide synthase (PIN), produced by thrombin digestion of GST-PIN (rat) (UniProt P63170). In words: SPR competition.

By UniProt entry, the sequences of proteins in these tests, tags left out.
UniProt P63170: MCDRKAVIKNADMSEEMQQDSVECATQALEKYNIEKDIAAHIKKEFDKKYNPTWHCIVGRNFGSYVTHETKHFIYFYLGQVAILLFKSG

Results are given in words; binding and its absence hold for the method and conditions named. Some entries that bind do so weakly or less than the wild type.

B1: mutant nNOS peptide represented by sequence SEQ ID NO: 3 (Lys-Asp-Thr-Gly-Ile-Gln-Val-Asp-Trp-Asp) (peptide)
peptide: KDTGIQVDWD
notes: Synthetic 10-mer; It differs from the normal peptide by Arg to Trp at position 9
Turning to B1, the binding entry in test [1], in test [2], in test [3] and in test [4] was “binds” each time.

B2: normal (non-mutant) nNOS peptide Lys Asp Thr Gly Ile Gln Val Asp Arg Asp (nNOS amino acids 229-238) (peptide)
peptide: KDTGIQVDRD
notes: Made by Fmoc solid phase synthesis; also called normal peptide; normal nNOS peptide
For B2, the binding result in test [1] is on record as “binds”.

For IDVGIQVDWD (Synthetic 10-mer) [mutant nNOS peptide represented by sequence SEQ ID NO: 4 (Ile-Asp-Val-Gly-Ile-Gln-Val-Asp-Trp-Asp)], the binding entry in test [3] and in test [4] was “binds” each time.

Values taken from patent US20050019854A1, “Novel method for screening inhibitors of the linkage between the neuronal nitric oxide synthase associated protein and the protein inhibiting neuronal nitric oxide synthase” (priority 2001, published 2005).
